The record followed here is patent US7163799B2, “Neuromedin U receptor NMUR2 and nucleotides encoding it” (Merck & Co., Inc., priority 2000, dated 2007).

For the data set, the system named is rats. The experiment in a line: Core body temperature and gross motor activity in rats (radio transmitter) after ICV administration. Type of data set: in vivo, rat. The following applies: for change in gross motor activity: measured 24 hours, compared to pre-treatment.

Where no end group is shown, it is not given here.

For the substance YKVNEYQGPVAPSGGFFLFRPRN-NH2 [NMU], the “change in gross motor activity” value (1 μg ICV) is on record as “increased only in the first hour post-dosing”. Besides, where the note is “3 μg ICV”, the core temperature change result was “transient increase in core temperature”, the “duration of core temperature increase” value was “approximately one hour”, the “start of core temperature increase post-dosing” value is listed as “about 40 min” and the “change in gross motor activity” value was “increased only in the first hour post-dosing”.
